This note sets out measurements from PubChem BioAssay AID1487 (National Center for Advancing Translational Sciences (NCATS), 2009).

A short description of this test: qHTS Assay for Modulators of Lamin A Splicing. Conditions: HeLa LMNA splicing GFP/RFP minigene ratio, 48 h. Put shortly:
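Read-out is the ratio of GFP to DsRed2 object intensity, acquired by 488 nm laser-scanning cytometry on HeLa lamin A-EGFP minigene reporter cells. Compound incubation 48 hrs at 37 °C in Opti-MEM with 2% FBS; DMSO 0.5% final.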
(In general: Quantitative high-throughput screening tests each substance at several concentrations.)

[1] abbreviates: measured here: RFP viability control channel.
The mark [2] stands for this setting: measured here: GFP splicing reporter channel.

The list shows a part of the results. These are further read-outs of the screen, such as a control signal, another cell line or another target. No call is given for them. Most of these compounds were active or inconclusive in the main read-out, so they are no random draw. Potencies come from curve fits of mixed quality, noted in brackets.

The term AC50 denotes the concentration at which the activity in the assay is half-maximal. Turning to `Cc1ccc(C2C(C#N)=C(N)Oc3cc4c(cc32)OCO4)cc1` (stereo unspecified), the AC50 under setting [1] was 3.16 µM [rising, single point]. Regarding `CC(=O)Nc1ccc(/C=N/N2C(=O)NC(C)(c3ccc(OC(F)F)cc3)C2=O)cc1` (stereo unspecified), the AC50 under setting [2] was 10 µM [rising, partial curve, poor fit].

Turning to `O=C(CCc1nc(-c2ccccc2F)no1)NCCc1ccccc1Cl`, under setting [1], the half-maximal activity concentration (AC50) was 35.5 µM [rising, single point]. With `COc1ccc(NC(=O)/C(C#N)=C\c2cc(C)n(-c3ccc4c(c3)OCO4)c2C)cc1`, the AC50 under setting [2] was 1 µM [rising, partial curve] and the AC50 under setting [1] is 11.2 µM [rising, partial curve]. `COC(=O)c1ccc2c(c1)C(C)(C)C(/C=C/c1ccc(O)cc1)=[N+]2C`: the AC50 under setting [1] was 8.91 µM [falling, partial curve].

In the case of `COC(=O)CNC(=O)N1CCN(S(=O)(=O)c2ccc3c(ccn3C)c2)CC1`, under setting [1], the half-maximal activity concentration (AC50) was 0.282 µM [falling, full curve].

Take `C/C(=N\N1CCN(c2ccc(Cl)cc2)CC1)c1cccc([N+](=O)[O-])c1`: the half-maximal activity concentration (AC50) under setting [1] was 0.282 µM [falling, full curve, poor fit]. With `COc1ccc(Cn2nc(C)cc2C)cc1OC`, the concentration at half-maximal activity (AC50) by setting is: under setting [2], 12.6 µM [rising, single point]; under setting [1], 17.8 µM [rising, single point]. As to `O=C(C[n+]1ccc(Cc2ccccc2)cc1)Nc1ccccc1`, the AC50 runs as follows: under setting [2], 11.2 µM [rising, partial curve]; under setting [1], 20 µM [rising, single point]. Consider `Cc1ccc(-c2nn(-c3ccccc3)cc2CNCc2ccccc2)cc1`, for which the half-maximal activity concentration (AC50) under setting [2] is 35.5 µM [falling, partial curve, poor fit] and the half-maximal activity concentration (AC50) under setting [1] is 28.2 µM [falling, partial curve, poor fit]. For `Cc1ccc(NC(=O)c2ncoc2-c2ccco2)cc1Cl`, under setting [1], the AC50 is 0.0447 µM [falling, full curve, poor fit]. Regarding `Cc1cccc(C)c1NC(=O)Cn1c(SCC(=O)NCc2ccccc2)nc2ccccc21`, under setting [1], the half-maximal activity concentration (AC50) is 35.5 µM [rising, single point]. In the case of `Cc1cc(=O)[nH]c2nnc(SCc3ccc(C(F)(F)F)cc3)n12`, the AC50 under setting [1] is 0.0316 µM [falling, full curve, poor fit]. `O=C1NC(=Nc2ccc(Cl)cc2)SC1Cc1cccc(Cl)c1Cl` (stereo unspecified): the AC50 under setting [1] was 35.5 µM [rising, single point].

For `CCOC(=O)c1[nH]c(C)c(CCC(=O)Nc2cccc(SC)c2)c1C`, the half-maximal activity concentration (AC50) by setting is: under setting [2], 1 µM [rising, full curve]; under setting [1], 2.24 µM [rising, full curve]. Regarding `CCN(CCCNC(=O)CN(C)S(=O)(=O)c1cccc2nsnc12)c1ccccc1`, the AC50 under setting [2] is 0.0178 µM [rising, full curve, poor fit].
